Patent US20130287702A1 (CASE WESTERN RESERVE UNIVERSITY, published 2013)
No constants are given. Whether binding was seen depends on the method and setting. Some entries that bind do so weakly or less than the wild type.

T1: proteolytically cleaved PTPµ extracellular fragment in tumors of human LN-229 glioma cells (human) (UniProt P28827)
T1 sequence: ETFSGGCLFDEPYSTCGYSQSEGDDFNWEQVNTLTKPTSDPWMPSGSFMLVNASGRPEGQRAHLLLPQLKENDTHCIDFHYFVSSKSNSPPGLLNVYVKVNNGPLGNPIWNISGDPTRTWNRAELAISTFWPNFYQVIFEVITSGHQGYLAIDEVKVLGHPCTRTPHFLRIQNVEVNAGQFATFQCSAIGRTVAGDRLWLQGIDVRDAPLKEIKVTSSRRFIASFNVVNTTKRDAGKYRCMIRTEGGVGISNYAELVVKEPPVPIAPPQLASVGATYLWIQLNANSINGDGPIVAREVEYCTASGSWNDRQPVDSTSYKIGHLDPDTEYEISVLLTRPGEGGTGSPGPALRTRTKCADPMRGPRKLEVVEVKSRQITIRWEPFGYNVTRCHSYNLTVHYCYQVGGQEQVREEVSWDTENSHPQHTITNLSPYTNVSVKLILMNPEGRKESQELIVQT


Columns and labels:
[1] = molecular target: T1, proteolytically cleaved PTPµ extracellular fragment in tumors of human LN-229 glioma cells (human); test: in vivo labeling of LN-229-GFP xenografts, 3-D cryo-imaging (FIG. 8)
[2] = molecular target: T1, proteolytically cleaved PTPµ extracellular fragment in tumors of human LN-229 glioma cells (human); test: in vivo labeling of LN-229-GFP intracranial tumors, cryo-imaging
[3] = molecular target: T1, proteolytically cleaved PTPµ extracellular fragment in tumors of human LN-229 glioma cells (human); test: fluorescent probe labeling (1 µM) of fixed LN-229-GFP flank tumor sections

Row | Binder | binding [1] | binding [2] | binding [3]
1 | EGDDFNWEQVNTLTKPTSD (Cy5 NHS ester dye conjugated to the N-terminal glycine residue) [SBK2-Cy5 probe] | binds | binds | 
2 | EGDDFNWEQVNTLTKPTSD (Texas Red label; site of attachment not stated) [SBK2-Texas Red probe] |  |  | binds
